Data taken from PubChem BioAssay AID463188, deposited by University of Pittsburgh Molecular Library Screening Center (2010).

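A z-score from a phospho-tyrosine peptide counterscreen run alongside a FRET kinase assay of purified Hck-YEEI bound to Nef, read after timed room-temperature incubations.
Compounds were tested at a single concentration of 10 µM.
The number is a z-score for the p-Tyr peptide counterscreen; higher values mean a stronger counterscreen signal, and values above 3 mark a compound as likely interfering.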

Common to all entries: measured here: p-Tyr peptide counterscreen.
Part of the compounds only, not a random draw; the main read-out is not listed here.

Cn1nccc1C(=O)Nc1sc2c(c1C(N)=O)CCCC2 read z-score 0.4431.
COc1cc(/C=C/c2ccc3cccc(OC)c3n2)c(O)c([N+](=O)[O-])c1 read z-score 0.1065.
CCC/C=N/NC(=O)c1cccc(Br)c1 read z-score -0.8539.
COc1cc(/C=C2\SC(=O)N(Cc3ccc(Cl)cc3)C2=O)cc([N+](=O)[O-])c1O read z-score -2.279.
CC(=O)NS(=O)(=O)c1ccc(NC(=O)c2cc(-c3ccc(C)c(C)c3)nc3ccccc23)cc1 read z-score -0.6249.
S=c1[nH]nc(-c2n[nH]c3c2CCC3)n1/N=C/C=C/c1ccco1 read z-score -1.024.
CCOC(=O)CSC(=S)NC(=O)c1ccc(OC)cc1 read z-score -0.786.
Cc1ccc(C)c(NC(=O)c2cnn3ccccc23)c1 read z-score 0.9907.
COc1cc(Nc2ncnc(N)n2)cc(OC)c1 read z-score -1.897.
N=c1c2c(-c3ccccc3)c(-c3ccccc3)oc2ncn1CCN1CCOCC1 read z-score 1.317.
c1ccc(-c2cc(-c3nnc4n3N=C(c3ccc5ccccc5c3)CS4)[nH]n2)cc1 read z-score -1.249.
O=C(Cn1nc(-c2ccc3c(c2)OCCO3)ccc1=O)Nc1ccc(-n2cnnn2)cc1 read z-score -0.06105.
CN=c1scc(-c2ccccc2F)n1/N=C/c1ccc(O)c(O)c1O read z-score 0.2473.
O=C(Nc1ccc(S(=O)(=O)Nc2nccs2)cc1)c1cc(-c2ccccn2)nc2ccccc12 read z-score -1.71.
COCCNc1nc(-c2cc(C)n(CCc3ccc(OC)cc3)c2C)cs1 read z-score -1.744.
Nc1ncnc2oc(-c3ccco3)c(-c3ccco3)c12 read z-score -1.041.
O=C(NC(=S)Nc1ccc(Cc2ccncc2)cc1)c1ccc(F)cc1 read z-score -1.839.
CCOC(=O)c1cnc2c(-c3ccc(F)cc3)cnn2c1C(F)(F)F read z-score 11.01.
Nc1c(C(=O)NCc2ccco2)c2nc3ccccc3nc2n1Cc1ccc(F)cc1 read z-score 2.558.
Cc1cc(C=C2C(=O)c3ccccc3C2=O)c(C)n1-c1cccc(C(=O)O)c1 read z-score -1.17.
NC(=O)CC(NC(=O)Cc1cccc2ccccc12)c1ccc(NCCOc2ccccc2)c([N+](=O)[O-])c1 (stereo unspecified) read z-score 0.6544.
O=C(CCN1CCN(c2ccccc2)CC1)N/N=C/c1ccc(O)c(O)c1O read z-score -1.335.
Cc1nc(NC(=O)c2ccccc2)sc1-c1csc(Nc2ccc(C(=O)O)cc2)n1 read z-score -0.8026.
CC1=C(C#N)C(=O)NC(=O)/C1=C/c1ccc(-c2ccc(S(N)(=O)=O)cc2)o1 read z-score -1.732.
CCOC(=O)Cc1c(C)c2c(O)cc(O)cc2oc1=O read z-score 57.76.
COc1cccc(N=c2oc3ccc(OC)cc3cc2-c2nc3ccccc3[nH]2)c1 read z-score -1.461.
CCN(CC)CCN=Cc1c(O)n(CCc2ccccc2)c(=O)[nH]c1=O read z-score 0.7662.
CCOC(=O)NCCOC(=O)Nc1ccc(Cl)cc1 read z-score -1.878.
COc1ccc(C(=O)N/C(=C\c2ccc3c(c2)OCO3)C(=O)Nc2ccc(C(=O)O)cc2)cc1 read z-score -0.645.
CCn1c(C)nc2cc(C(=O)N/N=C/c3ccc(O)c(O)c3O)ccc21 read z-score -1.166.
c1ccc(-c2oc3ncnc(NCCN4CCOCC4)c3c2-c2ccccc2)cc1 read z-score 2.374.
O=C(O)CC1S/C(=N/N=C/c2ccc(-c3ccc(Cl)c([N+](=O)[O-])c3)o2)NC1=O (stereo unspecified) read z-score -1.155.
CCc1ccc2nc(NC(=O)c3ccc4c(=O)[nH]c(CN5CCOCC5)nc4c3)sc2c1 read z-score -1.593.
CCN1/C(=C\C=C2\C(=O)N(C)C(=S)N2C)Sc2ccccc21 read z-score -1.663.

The last 3 entries again:

| SMILES | z-score |
|---|---|
| `O=C(O)CC1S/C(=N/N=C/c2ccc(-c3ccc(Cl)c([N+](=O)[O-])c3)o2)NC1=O` (stereo unspecified) | -1.155 |
| `CCc1ccc2nc(NC(=O)c3ccc4c(=O)[nH]c(CN5CCOCC5)nc4c3)sc2c1` | -1.593 |
| `CCN1/C(=C\C=C2\C(=O)N(C)C(=S)N2C)Sc2ccccc21` | -1.663 |